For at least one compound, name, drawing or mass did not settle the structure.
Experiments:
Assay type in all cases: cell-based, human
SLC30A10 = settings: HepG2 cells, indicated doses for 16 h or indicated times; no drug normalized to 1
Method: Cells were treated with 0 or 250 μM manganese for 4 h, and gene expression was analyzed by qRT-PCR. For each transcript, expression without manganese treatment was normalized to 1. N=4. Data are mean±SE.
Cell culture. HepG2 cells were grown in Eagle's modified essential medium (MEM; Corning) with 10% fetal bovine serum (Atlanta Biologicals), 100 IU/ml penicillin (Corning), and 100 μg/ml streptomycin (Corning). 293T cells were maintained in Dulbecco's modified essential medium/F12 (Thermo) supplemented with 10% fetal bovine serum, penicillin (100 IU/ml), and streptomycin (100 μg/ml). Human primary hepatocytes were purchased from XenoTech (catalog #HPCH10+) and cultured according to protocols provided by the supplier.
(§1) manganese and drug treatments in cell culture. Cells were treated with indicated levels of manganese as manganeseCl2.4H2O (Fisher). Vehicle for manganese treatment was water. Prolyl hydroxylase inhibitors roxadustat (Caymen), vadadustat, and molidustat (both APE-Bio); the HIFα inhibitor LW6 (Selleckchem); the proteasomal inhibitor MG132 (Sigma); and the transcription inhibitor actinomycin D (Sigma) were dissolved in DMSO. […] Vehicle treatment for all drugs was DMSO.
Quantitative RT-PCR assays. […] Transcript levels were quantified using the ΔΔCT method with 18S (in mice) or TBP (in HepG2 cells) as the internal control, also as described by us previously (47, 50).

HIF1α = settings: HepG2 cells, 20 μM roxadustat, 80 μM vadadustat or 20 μM molidustat for 16 h
Method: as §1
(§2) Immunoblots. HepG2 cells were cultured in 35 mm dishes, treated with or without manganese, MG132 and/or prolyl hydroxylase inhibitors, and scrapped using 200 μl of RIPA buffer (50 mM Tris-HCl, pH7.4; 150 mM NaCl; 1Mm EDTA; 1% Triton; 0.25% sodium deoxycholate; protease inhibitors cocktail (Thermo A32953)). Whole-cell lysates were prepared by adding loading buffer (50 mM Tris-HCl, pH 7.4; 2% sodium dodecyl sulfate; 10% glycerol, 0.1 M dithiothreitol; 0.01% (weight/volume) bromophenol blue) and boiling the samples for 5 min. Equal volumes of samples were loaded per lane. Further processing was as described by us previously (47). Images were quantified using ImageQuant TL software (GE).
(§3) Antibodies and chemicals. […]

HIF2α = settings: HepG2 cells, 20 μM roxadustat, 80 μM vadadustat or 20 μM molidustat for 16 h
Method: as §1, §2, §3

HepG2 cells = test: MTT cell viability assay, manganese-induced cell death; settings: 20 μM roxadustat, 80 μM vadadustat or 20 μM molidustat for 16 h then manganese for 24 h
Method: manganese and drug treatments in cell culture. […] Vehicle for manganese treatment was water. […] Vehicle treatment for all drugs was DMSO.
Cell viability assays. These were performed using the 3-(4,5-dimethylthiazol-2-yl)-2,5-diphenyl tetrazolium bromide (MTT) reagent (Sigma) as described by us previously (47, 50).

## O=c1c(-n2ccnn2)c[nH]n1-c1cc(N2CCOCC2)ncn1 [molidustat, 2-(6-morpholin-4-ylpyrimidin-4-yl)-4-(triazol-1-yl)-1H-pyrazol-3-one]
SLC30A10
  SLC30A10 expression after prolyl hydroxylase inhibitor: increases
HIF1α
  HIF1α protein levels after prolyl hydroxylase inhibitor: increases
HIF2α
  HIF2α protein levels after prolyl hydroxylase inhibitor: increases
HepG2 cells
  Protection against manganese-induced cell death: protects
